These are yes or no findings as the source states them, for the method shown. Binding seen in cells or lysates may run through a third protein. A result given as binding can be weak or reduced; the word gives no strength.
T1: amphiphysin 1 (Amph1) (rat (endogenous in adult rat brain)) (UniProt O08838)
T1 sequence: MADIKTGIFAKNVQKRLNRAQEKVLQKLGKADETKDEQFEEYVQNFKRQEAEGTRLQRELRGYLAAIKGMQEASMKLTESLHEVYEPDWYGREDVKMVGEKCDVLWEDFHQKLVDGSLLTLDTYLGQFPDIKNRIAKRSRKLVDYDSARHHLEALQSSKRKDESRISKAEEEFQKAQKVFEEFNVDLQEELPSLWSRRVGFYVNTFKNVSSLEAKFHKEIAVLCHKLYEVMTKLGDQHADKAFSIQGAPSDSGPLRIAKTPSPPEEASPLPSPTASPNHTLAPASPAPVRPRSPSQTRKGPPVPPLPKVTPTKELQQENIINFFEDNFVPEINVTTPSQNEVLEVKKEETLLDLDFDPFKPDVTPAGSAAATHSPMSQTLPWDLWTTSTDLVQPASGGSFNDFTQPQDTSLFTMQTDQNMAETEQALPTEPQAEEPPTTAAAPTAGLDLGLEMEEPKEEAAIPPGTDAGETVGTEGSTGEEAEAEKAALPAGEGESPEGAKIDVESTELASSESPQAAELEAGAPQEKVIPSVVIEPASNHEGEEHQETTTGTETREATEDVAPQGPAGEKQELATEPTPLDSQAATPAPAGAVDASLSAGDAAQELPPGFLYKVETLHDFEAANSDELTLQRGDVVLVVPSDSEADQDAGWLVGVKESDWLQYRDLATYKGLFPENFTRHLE


Assays:
[1] = target: T1, amphiphysin 1 (Amph1) (rat (endogenous in adult rat brain)); assay: co-IP
[2] = target: Cyclin-dependent kinase-like 5 (CDKL5) (rat (endogenous in adult rat brain)); assay: co-IP

binding [1] | binding [2] | Molecule
binds |  | Cyclin-dependent kinase-like 5 (CDKL5) (rat (endogenous in adult rat brain))
 | binds | amphiphysin 1 (Amph1) (protein, UniProt O08838 1-683) MADIKTGIFAKNVQKRLNRAQEKVLQKLGKADETKDEQFEEYVQNFKRQEAEGTRLQRELRGYLAAIKGMQEASMKLTESLHEVYEPDWYGREDVKMVGEKCDVLWEDFHQKLVDGSLLTLDTYLGQFPDIKNRIAKRSRKLVDYDSARHHLEALQSSKRKDESRISKAEEEFQKAQKVFEEFNVDLQEELPSLWSRRVGFYVNTFKNVSSLEAKFHKEIAVLCHKLYEVMTKLGDQHADKAFSIQGAPSDSGPLRIAKTPSPPEEASPLPSPTASPNHTLAPASPAPVRPRSPSQTRKGPPVPPLPKVTPTKELQQENIINFFEDNFVPEINVTTPSQNEVLEVKKEETLLDLDFDPFKPDVTPAGSAAATHSPMSQTLPWDLWTTSTDLVQPASGGSFNDFTQPQDTSLFTMQTDQNMAETEQALPTEPQAEEPPTTAAAPTAGLDLGLEMEEPKEEAAIPPGTDAGETVGTEGSTGEEAEAEKAALPAGEGESPEGAKIDVESTELASSESPQAAELEAGAPQEKVIPSVVIEPASNHEGEEHQETTTGTETREATEDVAPQGPAGEKQELATEPTPLDSQAATPAPAGAVDASLSAGDAAQELPPGFLYKVETLHDFEAANSDELTLQRGDVVLVVPSDSEADQDAGWLVGVKESDWLQYRDLATYKGLFPENFTRHLE
